{"source": "PubChem BioAssay AID590", "about": "(National Center for Advancing Translational Sciences (NCATS), 2007)", "note": "Among all 59,000 compounds or so, about 6,500 (11%) were called active. Inconclusive means that the source gave no clear call. Such entries were picked first, then a sample of the others. No stated cut-off is given here; in the data, active means max dye-equivalent concentration above about 10 nM; inconclusive means mostly about 1.1 nM to 9.6 nM; inactive means weaker than that."}
{"experiment": "qHTS Assay for Spectroscopic Profiling in A350 Spectral Region", "conditions": "Compound autofluorescence, 340/450 nm, Alexa 350 dye-equivalents; active compounds read high"}
{"compound": "Cc1ccc(-n2ccnc2SCC(=O)N(CC(C)C)C2CCS(=O)(=O)C2)c(C)c1", "note": "(configuration not stated)", "max dye-equivalent concentration": "inconclusive: 1.2 nM"}
{"compound": "CCn1c(SCC(=O)Nc2nc3ccc(OC)cc3s2)nnc1-c1ccoc1C", "max dye-equivalent concentration": "inconclusive: 6.1 nM"}
{"compound": "CCCCn1c2nc3ccccc3nc2c2c(=N)oc(C)nc21", "max dye-equivalent concentration": "active: 1800 nM"}
{"compound": "CN(C)/C=N/c1cnc(C(=O)c2ccc(Cl)cc2)n1C", "max dye-equivalent concentration": "inconclusive: 2.7 nM"}
{"compound": "CCC1Oc2ccccc2N(CC(=O)Nc2ccc3c(c2)OCCO3)C1=O", "note": "(configuration not stated)", "max dye-equivalent concentration": "inconclusive: 1.2 nM"}
{"compound": "CC1CCN(C(=O)CSc2ccc3nnc(-c4ccc(F)cc4)n3n2)CC1", "max dye-equivalent concentration": "inconclusive: 3.8 nM"}
{"compound": "CC(C)(C)OC(=O)c1c(N)n(CCCN2CCCC2=O)c2nc3ccccc3nc12", "max dye-equivalent concentration": "active: 9100 nM"}
{"compound": "COc1ccc(C2C(C(=O)N3CCN(c4ccccc4F)CC3)c3ccccc3C(=O)N2C)cc1", "note": "(configuration not stated)", "max dye-equivalent concentration": "inconclusive: 2.4 nM"}
{"compound": "COc1ncc2nc(-c3ccccc3)c(=O)n(-c3ccccc3)c2n1", "max dye-equivalent concentration": "inconclusive: 6.3 nM"}
{"compound": "O=C(c1cccc(F)c1)N1CCC2(CC1)CN(c1ccc(-c3ccccc3)cc1)C2", "max dye-equivalent concentration": "inactive"}
{"compound": "CCCn1nc(-c2ccccc2)c2nc3ccccc3nc21", "max dye-equivalent concentration": "inconclusive: 2.4 nM"}
{"compound": "CC(c1nnc(SCC(=O)Nc2ccc3[nH]c(=O)[nH]c3c2)n1Cc1ccccc1)N(C)C", "note": "(configuration not stated)", "max dye-equivalent concentration": "inconclusive: 4.7 nM"}
{"compound": "CCn1c(SCc2ccc(C(=O)OC)o2)nc2sc3c(c2c1=O)CCCC3", "max dye-equivalent concentration": "inactive"}
{"compound": "CCCn1c2c(c(O)c(C(=O)Nc3ccc(OCC)cc3)c1=O)CCCC2", "max dye-equivalent concentration": "active: 68 nM"}
{"compound": "O=C(c1cc2ccccc2oc1=O)N1CCCC1", "max dye-equivalent concentration": "inconclusive: 2.3 nM"}
{"compound": "C=CCSC[C@@H]1Nc2cc(Cl)c(S(N)(=O)=O)cc2S(=O)(=O)N1", "max dye-equivalent concentration": "inconclusive: 6.8 nM"}
{"compound": "COc1ccc(Cn2c(CCC(=O)O)nc3cccnc32)cc1", "max dye-equivalent concentration": "inconclusive: 3.3 nM"}
{"compound": "CCOC(=O)CC1(CC(=O)OCC)NC(=O)c2c(C)sc(C(=O)OCC)c2N1", "max dye-equivalent concentration": "active: 310 nM"}
{"compound": "COc1ccc(C(C)C)cc1S(=O)(=O)Nc1ccc(Cl)cn1", "max dye-equivalent concentration": "inconclusive: 1.3 nM"}
{"compound": "O=C(N1CCOCC1)N1CCN(S(=O)(=O)c2ccccc2)C1", "max dye-equivalent concentration": "inactive"}
{"compound": "O=C1CC(c2cccs2)CC2=C1C(c1ccccc1)n1ncnc1N2", "note": "(configuration not stated)", "max dye-equivalent concentration": "active: 190 nM"}
{"compound": "CCC(=O)Nc1ccccc1C(=O)N1CCOCC1", "max dye-equivalent concentration": "inactive"}
{"compound": "CCOc1ccccc1-n1c(SCC(N)=O)nc2ccccc2c1=O", "max dye-equivalent concentration": "inconclusive: 2.7 nM"}
{"compound": "COC(=O)C1C(=O)CC(C)(O)C(C(=O)OC)C1c1ccccc1F", "note": "(configuration not stated)", "max dye-equivalent concentration": "inconclusive: 1.3 nM"}
{"compound": "Cn1c(=O)c2c(nc(NCCCO)n2C/C=C/c2ccccc2)n(C)c1=O", "max dye-equivalent concentration": "inconclusive: 1.5 nM"}
{"compound": "CCOCCCn1c(=S)[nH]c2cc(C(=O)NCCN(CC)CC)ccc2c1=O", "max dye-equivalent concentration": "inconclusive: 4.9 nM"}
{"compound": "CCCCOc1ccc(Cl)cc1CSc1nncn1N", "max dye-equivalent concentration": "inactive"}
{"compound": "COC(=O)c1sccc1NC(=O)Cn1cnc2c1c(=O)n(C)c(=O)n2C", "max dye-equivalent concentration": "inactive"}
{"compound": "O=C(O)c1cc(Cl)cc(Cc2cc(Cl)cc(C(=O)O)c2O)c1O", "max dye-equivalent concentration": "inactive"}
{"compound": "O=C(O)c1ccc(NS(=O)(=O)c2ccc(Cl)c(Cl)c2)cc1O", "max dye-equivalent concentration": "inconclusive: 4.9 nM"}
{"compound": "N#Cc1nc(-c2ccc(OCc3ccccc3)cc2)oc1NCCN1CCOCC1", "max dye-equivalent concentration": "inconclusive: 6.6 nM"}
{"compound": "N#Cc1cccc(-c2ccc3ncnc(NC4CCNCC4)c3c2)c1", "max dye-equivalent concentration": "inactive"}
{"compound": "CCOC(=O)C1CCN(C(=O)Cn2cc(C#N)c3ccccc32)CC1", "max dye-equivalent concentration": "inconclusive: 2.1 nM"}
{"compound": "CCN(CC)CCCN1C(=O)C(=O)/C(=C(/O)c2ccc(C)cc2)C1c1ccccn1", "note": "(configuration not stated)", "max dye-equivalent concentration": "inconclusive: 2.1 nM"}
{"compound": "CCCc1nc(S(=O)(=O)Cc2ccc(Cl)cc2Cl)n[nH]1", "max dye-equivalent concentration": "inactive"}
{"compound": "Cc1cc(-n2c(C)cc(C(=O)CSc3nc4ccccc4c(=O)n3Cc3ccco3)c2C)no1", "max dye-equivalent concentration": "inconclusive: 4 nM"}
{"compound": "COc1ccc(-c2cc(-c3c(O)c(OC)c4occc4c3OC)[nH]n2)cc1OC", "max dye-equivalent concentration": "inactive"}
{"compound": "C[C@@H]1c2ccccc2Cn2cc3c(c21)C(=O)c1cccc(OP(=O)(O)OCc2ccccc2)c1C3=O", "max dye-equivalent concentration": "active: 27 nM"}
{"compound": "CC(=O)N1CCC(C(=O)Nc2ccccc2)(N(Cc2ccccc2)C(=O)c2cccnc2)CC1", "max dye-equivalent concentration": "inconclusive: 1.4 nM"}
{"compound": "CCN1CCN(Cc2c(O)ccc3c(=O)c(-c4ccc(OC)c(OC)c4)c(C)oc23)CC1", "max dye-equivalent concentration": "active: 330 nM"}
{"compound": "COc1ccc(NC(=O)c2ccco2)cc1NC(=O)c1ccc(Br)o1", "max dye-equivalent concentration": "inconclusive: 3 nM"}
{"compound": "COc1ccc2oc(C(=O)C3CC3)c(N)c2c1", "max dye-equivalent concentration": "active: 72 nM"}
{"compound": "Cc1ccc(NC(=O)CSc2nc3nc(C)cc(C)c3c(=O)[nH]2)cc1", "max dye-equivalent concentration": "inactive"}
{"compound": "COc1ccc(-c2nnc(-c3ccc(Br)o3)o2)cc1OC", "max dye-equivalent concentration": "inconclusive: 7.9 nM"}
{"compound": "Cc1ccc(C(=O)C2=C(O)C(=O)N(CCN(C)C)C2c2ccccn2)o1", "note": "(configuration not stated)", "max dye-equivalent concentration": "inconclusive: 1.9 nM"}
{"compound": "O=C(CN(CC1CCCO1)C(=O)CCC(=O)Nc1ccccn1)NCC1CCCO1", "note": "(configuration not stated)", "max dye-equivalent concentration": "active: 18 nM"}
{"compound": "O=C(NCc1ccco1)c1c2c(nc3ccccc13)CCC2", "max dye-equivalent concentration": "inconclusive: 4.4 nM"}
{"compound": "O=S(=O)(c1ccccc1)N1CCC[C@@]2(CCN(c3cccc(-c4ccccc4)c3)C2)C1", "max dye-equivalent concentration": "inactive"}
{"compound": "COc1ccc2c(C)cc(SCC#N)nc2c1", "max dye-equivalent concentration": "inconclusive: 2.9 nM"}
{"compound": "CC(=O)[C@]1(O)CC[C@@H]2[C@H]3C[C@@H](C)C4=CC(=O)CC[C@@]4(C)[C@H]3[C@@H](O)C[C@]21C", "max dye-equivalent concentration": "inactive"}
{"compound": "O=c1c2[nH]c3ccc(F)cc3c2ncn1CCCN1CCOCC1", "max dye-equivalent concentration": "inconclusive: 1.4 nM"}
{"compound": "CCN(c1ccccc1)c1nc2ccsc2c(=O)s1", "max dye-equivalent concentration": "inconclusive: 9.5 nM"}
{"compound": "COc1cc2cc(CN(CCN3CCCC3)C(=O)Nc3ccc(F)cc3)c(=O)[nH]c2cc1OC", "max dye-equivalent concentration": "active: 290 nM"}
{"compound": "CCC1(C)Cc2c(sc3nc(NC)n(C)c(=O)c23)CO1", "note": "(configuration not stated)", "max dye-equivalent concentration": "inconclusive: 4.1 nM"}
{"compound": "COc1ccc2nc(N3CCCC3)c(C#N)cc2c1", "max dye-equivalent concentration": "inconclusive: 9 nM"}
{"compound": "CCOC(=O)Cc1csc(NC(=O)CSc2nnc(-n3nc(C)cc3C)c3ccccc23)n1", "max dye-equivalent concentration": "active: 23 nM"}
{"compound": "COc1cccc(-c2nn(C)c3sc(C(=O)N4CCN(c5ccccc5)CC4)cc23)c1", "max dye-equivalent concentration": "inconclusive: 2.4 nM"}
{"compound": "O=C(c1csnn1)N1CCC[C@@]2(CCN(C(c3ccccc3)c3ccccc3)C2)C1", "max dye-equivalent concentration": "inactive"}
{"compound": "Cc1ccc(C(O)c2nccn2C)o1", "note": "(configuration not stated)", "max dye-equivalent concentration": "inactive"}
{"compound": "CN[C@@H]1[C@H](O[C@@H]2O[C@H](CO)[C@@H](N)[C@H](O)[C@@H]2O)O[C@H]2C[C@@H](N)[C@@H](O[C@H]3[C@@H](O)[C@H](O)[C@H](N)C[C@@H]3N)O[C@H]2[C@H]1O", "max dye-equivalent concentration": "inactive"}
{"compound": "CCC(C)COC(=O)C(C#N)c1nc2ccccc2nc1N1CCCCC1", "note": "(configuration not stated)", "max dye-equivalent concentration": "inconclusive: 1.8 nM"}
{"compound": "O=C(CN1CCN(C(=O)c2ccccc2)CC1)Nc1ccc(Br)cn1", "max dye-equivalent concentration": "inactive"}
{"compound": "O=C(O)c1cc(S(=O)(=O)Nc2ccc3oc(=O)sc3c2)ccc1O", "max dye-equivalent concentration": "inactive"}
{"compound": "CCCc1ccccc1OCCNC(C)=O", "max dye-equivalent concentration": "inconclusive: 1.3 nM"}
{"compound": "COCc1[nH]nc2c1C1(C(=O)Nc3ccc(F)cc31)C(C#N)=C(N)O2", "note": "(configuration not stated)", "max dye-equivalent concentration": "inconclusive: 1.8 nM"}
{"compound": "COc1cc(-c2nc(S(=O)(=O)c3ccc(Cl)cc3)c(N3CCOCC3)o2)cc(OC)c1OC", "max dye-equivalent concentration": "inactive"}
{"compound": "COc1cc2c(C)nc3onc(-c4ccccc4)c3c2cc1OC", "max dye-equivalent concentration": "inconclusive: 9.3 nM"}
{"compound": "COc1cc(C2C(C#N)=C(N)Oc3cc(C)n(Cc4ccccn4)c(=O)c32)cc2c1OCO2", "note": "(configuration not stated)", "max dye-equivalent concentration": "inconclusive: 4.7 nM"}
{"compound": "CCn1c(SCC(=O)Nc2ccc(NC(=O)c3ccco3)c(OC)c2)nc2ccccc2c1=O", "max dye-equivalent concentration": "active: 250 nM"}
{"compound": "FC(F)(F)c1cnc(Nc2ccc(N3CCOCC3)cc2)c(Cl)c1", "max dye-equivalent concentration": "inactive"}
{"compound": "COc1ccc2c(C(=O)CN(C)C3CCCCC3)c[nH]c2c1", "max dye-equivalent concentration": "inconclusive: 1.5 nM"}
{"compound": "CCOC(=O)/C=c1\\s/c(=C\\c2ccc3c(c2)OCCO3)c(=O)n1CC(=O)NCC1CCCO1", "note": "(configuration not stated)", "max dye-equivalent concentration": "active: 200 nM"}
{"compound": "O=C(c1cccc2ccccc12)N1CCN(c2ccccc2F)CC1", "max dye-equivalent concentration": "inactive"}
{"compound": "Cc1onc(-c2ccccc2)c1C(=O)Nc1nc(-c2ccc(F)c(F)c2)cs1", "max dye-equivalent concentration": "inactive"}
{"compound": "COc1ccc(-c2oc3ncnc(NCCN4CCOCC4)c3c2-c2ccc(OC)cc2)cc1", "max dye-equivalent concentration": "active: 40 nM"}
{"compound": "Cn1c(Cc2ccccc2)nnc1SCCC(=O)Nc1ccccc1", "max dye-equivalent concentration": "inconclusive: 1.1 nM"}
{"compound": "CCOc1cc(-c2c(C)c(C)nc(N)c2C#N)ccc1O", "max dye-equivalent concentration": "inconclusive: 8.7 nM"}
{"compound": "COCCCNC(=O)C1C2C=CC3(CN(Cc4ccc(C)cc4)C(=O)C13)O2", "note": "(configuration not stated)", "max dye-equivalent concentration": "active: 110 nM"}
{"compound": "O=C(CSc1nnc(-c2ccco2)o1)NC1CCCCCC1", "max dye-equivalent concentration": "inconclusive: 2.4 nM"}
{"compound": "CCOC(=O)c1ccccc1NC(=O)CC1SC(=NC)N(C)C1=O", "note": "(configuration not stated)", "max dye-equivalent concentration": "inconclusive: 1.7 nM"}
{"compound": "Clc1ccc2c(N3CCC(CCC4CCN(c5ncnc6cc(Cl)ccc56)CC4)CC3)ncnc2c1", "max dye-equivalent concentration": "inactive"}
{"compound": "C=CCn1c(=O)/c(=C/c2ccc(F)cc2)s/c1=C(\\C#N)c1nnc2n1CCCCC2", "max dye-equivalent concentration": "inconclusive: 1.4 nM"}
{"compound": "O=S1(=O)c2cccc3cccc(c23)N1Cc1ccc(-c2nnco2)cc1", "max dye-equivalent concentration": "active: 140 nM"}
{"compound": "CCOC(=O)c1c(NC(=O)CCC(=O)NCc2ccco2)sc2c1CCCC2", "max dye-equivalent concentration": "inactive"}
{"compound": "CC1(C)CC(=O)C(C(=O)CCCCC(=O)C2C(=O)CC(C)(C)CC2=O)C(=O)C1", "max dye-equivalent concentration": "inconclusive: 6.5 nM"}
{"compound": "Cc1cc(=O)[nH]c(SCC(=O)N2CCCCCC2)n1", "max dye-equivalent concentration": "inactive"}
{"compound": "Cc1ccc(C(C(=O)NCCc2ccccc2)N(C(=O)c2csnn2)C2CC2)o1", "note": "(configuration not stated)", "max dye-equivalent concentration": "inconclusive: 2.2 nM"}
